# Binding screen against folded nucleic acids

Oligonucleotides screened, 5′ to 3′:
TPP: TPP riboswitch RNA three-way junction, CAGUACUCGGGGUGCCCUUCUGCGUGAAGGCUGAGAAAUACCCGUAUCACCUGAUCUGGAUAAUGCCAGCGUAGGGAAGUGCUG. About 160 hits among about 24,000 compounds.
PreQ1: PreQ1 riboswitch RNA pseudoknot, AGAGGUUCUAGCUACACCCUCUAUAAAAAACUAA. From B. subtilis. About 170 hits among about 24,000 compounds.
SAM-II: SAM-II riboswitch RNA pseudoknot, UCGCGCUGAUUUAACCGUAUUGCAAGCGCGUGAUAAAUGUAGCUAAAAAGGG. About 200 hits among about 21,000 compounds.

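Compounds were printed on reactive glass slides in duplicate spots, a dye-labelled oligonucleotide was laid over them, and the fluorescence left after washing was read. For the PreQ1, TPP and SAM-II riboswitches the laboratory earlier reported (doi:10.1038/s41467-019-09493-3) 1 µM RNA, 2 h, and a rule that included a mean Z-score above 3 (spot signal-to-noise against the whole library), a score well above that on a control array, and duplicate spots agreeing (coefficient of variation under 100). The data file gives only the calls; its cut-offs may differ, and compounds hitting several targets are kept. The calls come from the array alone, and fixing a compound to the slide can hide its binding.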 A compound is marked active if it was called a hit and inactive if it was screened but was not. The compounds are a random part of those screened. A dash means that no call is listed here.

| # | structure | TPP | PreQ1 | SAM-II |
|---|---|---|---|---|
| 1 | `COC(=O)c1sccc1NC(=O)CCN1CCN[C@H]2CS(=O)(=O)C[C@H]21` | inactive | inactive | inactive |
| 2 | `CSc1nc(N)nc(SCC(=O)CC(=O)OC(C)C)c1C#N` | inactive | inactive | inactive |
| 3 | `COc1ccccc1CNCc1ccc2c(c1)n(C)c(=O)n2C` | inactive | inactive | - |
| 4 | `CN1CC2(CCNCC2)CC1C(=O)NCc1cnn(Cc2ccccc2)c1` (stereo unspecified) | inactive | inactive | inactive |
| 5 | `CCC(C)NCc1cc(-c2ccccc2Cl)on1` (stereo unspecified) | inactive | inactive | inactive |
| 6 | `O=C(CCc1ccc(O)cc1)N1C[C@@H](CN2CCOCC2)[C@@H](CO)C1` | inactive | inactive | inactive |
| 7 | `COc1cc([C@@H]2c3cc4c(cc3[C@@H](O)C3COC(=O)C32)OCO4)cc(OC)c1O` (stereo partly specified) | inactive | inactive | inactive |
| 8 | `Cc1ccc([C@H]2CN(C(=O)c3cc(N)[nH]n3)[C@@H]3C4CCN(CC4)[C@H]23)cc1` | inactive | inactive | inactive |
| 9 | `CCC(O)Cn1nc(C2CCOCC2)nc1C(C)(C)OC` (stereo unspecified) | inactive | inactive | inactive |
| 10 | `CN(C)S(=O)(=O)c1ccc2c(c1)C(=Cc1cc3c([nH]1)CCCC3)C(=O)N2` | inactive | inactive | inactive |
| 11 | `CC1(C)[C@H]2CC[C@]3(C)[C@@H](C(=O)C=C4[C@@H]5C[C@@](C)(C(=O)O)CC[C@]5(C)CC[C@]43C)[C@@]2(C)CC[C@@H]1O` | inactive | inactive | inactive |
| 12 | `Cc1ccc(Nc2nc(C)cc(N3CCN(S(=O)(=O)c4ccc(F)c(F)c4)CC3)n2)cc1` | inactive | inactive | - |
| 13 | `CCc1cnc(N)nc1N1CCCN(C(=O)c2ccco2)CC1` | inactive | inactive | inactive |
| 14 | `O=C(O)c1cc(=O)[nH]c(=O)[nH]1` | inactive | inactive | inactive |
| 15 | `CCOC(=O)c1nc(Nc2cccc(C(=O)OC)c2)c2ccccc2n1` | inactive | inactive | inactive |
| 16 | `O=C(c1ccn2cnnc2c1)N1[C@H]2CCNC[C@@H]1CC2` | inactive | inactive | inactive |
| 17 | `Cc1cn2c3c(=O)n(C)c(=O)n(C)c3nc2n1CCO` | inactive | inactive | inactive |
| 18 | `Cc1[nH]c2c(C)cccc2c1C(O)CN1CCN(c2ccccc2F)CC1` (stereo unspecified) | inactive | inactive | - |
| 19 | `Nc1ccncc1Br` | inactive | inactive | inactive |
| 20 | `O=C(CCCN1CCC(O)(c2ccc(Cl)cc2)CC1)c1ccc(F)cc1` | inactive | inactive | inactive |
| 21 | `O=C([C@@H](O)c1ccccc1)N1CCC(c2nccn2Cc2ccccc2)CC1` | inactive | inactive | inactive |
| 22 | `CNC(=O)[C@@H]1C[C@@H](N)CN1Cc1ccc(SC2CCCCC2)o1` | inactive | inactive | inactive |
| 23 | `CN(C)CCNc1nc2c(c(=O)n(C)c(=O)n2C)n1Cc1ccccc1Cl` | inactive | inactive | inactive |
| 24 | `Nc1sc2c(c1C(=O)NCCc1ccccc1)CCCC2` | inactive | inactive | inactive |
| 25 | `O=C(Oc1ccccc1)c1cccc2cccc(C(=O)Oc3ccccc3)c12` | inactive | inactive | inactive |
| 26 | `Cn1c(=O)[nH]c(=O)c2c1nc(SCCC(=O)O)n2CC(O)COc1ccccc1` (stereo unspecified) | inactive | inactive | inactive |
| 27 | `COc1ccc(-c2n[nH]c3c2C(c2ccc(SC)cc2)C(C#N)=C(N)O3)cc1` (stereo unspecified) | inactive | inactive | inactive |
| 28 | `COc1ccc(-c2nnc(N)o2)cc1` | inactive | inactive | inactive |
| 29 | `Nc1ccc(S(=O)(=O)Nc2ncccn2)cc1` | inactive | inactive | inactive |
| 30 | `COc1ccc([C@@H]2C[C@H](c3cccc(Cl)c3)n3nc(N)nc3N2)cc1` | inactive | inactive | inactive |
| 31 | `CNCc1nc2ccccc2n1CCOc1ccccc1C` | inactive | inactive | inactive |
| 32 | `Cc1ccc(Nc2nc(-c3ccncc3)cs2)cc1` | inactive | inactive | inactive |
| 33 | `CC(C)O[C@H]1CN(c2nnc(C(C)(C)C)o2)C[C@@H]1O` | inactive | inactive | inactive |
| 34 | `CC12C=CC(=O)NC1CCC1C2CCC2(C)C(C(=O)Nc3cc(C(F)(F)F)ccc3C(F)(F)F)CCC12` (stereo unspecified) | inactive | inactive | inactive |
| 35 | `COc1cc(C(C)=O)ccc1OCCCN1CCC(c2noc3cc(F)ccc23)CC1` | inactive | inactive | inactive |
| 36 | `CC(C)O[C@H]1CN(S(=O)(=O)c2ccc(C(=O)NC3CC3)cc2)C[C@@H]1O` | inactive | inactive | inactive |
| 37 | `Cc1nn(CCNC(=O)c2noc(C)c2CO)c(C)c1Cl` | inactive | inactive | inactive |
| 38 | `O=C(NC[C@@H]1CCN(Cc2cccc3nonc23)C[C@H]1O)c1ccco1` | inactive | inactive | inactive |
| 39 | `Nc1c(C(=O)N2CCCCC2)sc2ncccc12` | inactive | inactive | inactive |
| 40 | `Cc1ccccc1C1CCCN(c2nc(N)nc3c2CCNC3)C1` (stereo unspecified) | inactive | inactive | inactive |
| 41 | `CC(C)c1ccc(-c2c(NCCC3=CCCCC3)c(=O)c2=O)cc1` | inactive | inactive | - |
| 42 | `COc1cccc(CNc2c(C)c(C)nc3nncn23)c1` | inactive | inactive | - |
| 43 | `Cc1cc(NCCc2ccccc2)n2nc(C(F)(F)F)nc2n1` | inactive | inactive | - |
| 44 | `Cn1cc(NC(=O)c2cccc(CN3CCCC(O)C3)c2)cn1` (stereo unspecified) | inactive | inactive | inactive |
| 45 | `CCCc1nc(-c2cc3ccc(C)cc3nc2NCc2ccc(OC)cc2)no1` | inactive | inactive | - |
| 46 | `COc1ccc(-c2nccn2[C@H](CO)C(C)C)c(C)c1C` | inactive | inactive | inactive |
| 47 | `COc1cccc([C@@H]2CCN(Cc3ccc(CO)o3)C[C@H]2O)c1` | inactive | inactive | inactive |
| 48 | `C=CCN(CC#Cc1ccccc1)C(=O)C(N)c1c(C)n[nH]c1C` (stereo unspecified) | inactive | inactive | inactive |
| 49 | `Cn1c(=O)n(C)c2cc(CNC(=O)CCc3cc4n(n3)CCNC4)ccc21` | inactive | inactive | inactive |
| 50 | `CC1=C(c2ccc(Cl)cc2)S(=O)(=O)N=C1NC1CCN(Cc2ccccc2)CC1` | inactive | inactive | - |
| 51 | `C=C(C)c1nc(Oc2ccccc2)nc(Oc2ccccc2)n1` | inactive | inactive | inactive |
| 52 | `CC1(C)CC(CCO)CC(C)(C)N1` | inactive | inactive | inactive |
| 53 | `CCOc1ccc(C(C)=O)cc1NC(=O)NC[C@@H]1C[C@H](F)CN1` | inactive | inactive | inactive |
| 54 | `CCC(C)[C@H](N)c1nnc(SC)o1` (stereo partly specified) | inactive | inactive | inactive |
| 55 | `CC(C)NC(=O)c1ccc(C(C)C)cc1` | inactive | inactive | inactive |
| 56 | `O=C(c1ccc(Cl)nc1)c1cccs1` | inactive | inactive | inactive |
| 57 | `CCOC(=O)c1ccc(N2C(=O)CC(NC3CCN(Cc4ccccc4)CC3)C2=O)cc1` (stereo unspecified) | inactive | inactive | inactive |
| 58 | `Cc1cn([C@H]2C=C[C@@H](CO)O2)c(=O)[nH]c1=O` | inactive | inactive | inactive |
| 59 | `CNC(=O)c1cc(COc2nnc(Nc3ccc(Cl)cc3)c3ccoc23)ccn1` | inactive | inactive | inactive |
| 60 | `Cc1nc(C)n(CC(C)C(=O)NCc2c(C)ncc3c2CCNC3)n1` (stereo unspecified) | inactive | inactive | inactive |
| 61 | `O=C(O)/C(=C/c1ccccc1)c1ccccc1` | inactive | inactive | inactive |
| 62 | `Cn1c(=O)c2c(c3ccccc31)OC(N)=C(C#N)C2c1c(F)cccc1Cl` (stereo unspecified) | inactive | inactive | inactive |
| 63 | `Cc1cc(Nc2ccc(N(C)C)cc2)n2nc(-c3ccccc3)nc2n1` | inactive | inactive | - |
| 64 | `COc1ccc(CCNc2ncnc3scc(-c4cccs4)c23)cc1OC` | inactive | inactive | - |
| 65 | `COc1cc([C@@H]2c3cc4c(cc3[C@H](O)[C@H]3COC(=O)[C@@H]23)OCO4)cc(OC)c1OC` | inactive | inactive | inactive |
| 66 | `COc1ccc2cc3c(N)nn(C(=O)c4ccc(C(C)(C)C)cc4)c3nc2c1` | inactive | inactive | inactive |
| 67 | `Cn1cc(CNCC2(O)CCCN(CCc3ccccc3)C2=O)cn1` (stereo unspecified) | inactive | inactive | inactive |
| 68 | `CCn1c(N)nc2cc(C(=O)NCc3ccc4c(c3)CC(C)(C)O4)cnc21` | inactive | inactive | inactive |
| 69 | `NC(=O)c1cccnc1N1CCN(C(=O)c2ccc[nH]2)CC(O)C1` (stereo unspecified) | inactive | inactive | inactive |
| 70 | `CCNC(=O)C[C@@H]1N=C(c2ccc(Cl)cc2)c2cc(OC)ccc2-n2c(C)nnc21` | inactive | inactive | inactive |
| 71 | `Cc1cc(C)c(CNc2cc(C3CCCNC3)nc(C)n2)cn1` (stereo unspecified) | inactive | inactive | inactive |
| 72 | `Cc1cc(Nc2ccccc2Cl)n2nc(C)nc2n1` | inactive | inactive | inactive |
| 73 | `COc1ccc2c(c1)NP(=S)(Oc1ccccc1)N2` (stereo unspecified) | inactive | inactive | inactive |
| 74 | `CC(C)c1noc(C2CCCN2Cc2cccnc2N)n1` (stereo unspecified) | inactive | inactive | inactive |
| 75 | `CS(=O)(=O)N1CCC(NCC(c2ccccc2)N2CCCCCC2)CC1` (stereo unspecified) | inactive | inactive | inactive |
| 76 | `Cc1cc(S(=O)(=O)[C@H]2CS(=O)(=O)C[C@@H]2NCC2CCCO2)ccc1F` (stereo partly specified) | inactive | inactive | - |
| 77 | `Nc1cc(O)nc(SCC(=O)N2CCc3ccccc32)n1` | inactive | inactive | inactive |

Once more, the final 9:

structure,TPP,PreQ1,SAM-II
NC(=O)c1cccnc1N1CCN(C(=O)c2ccc[nH]2)CC(O)C1 (stereo unspecified),inactive,inactive,inactive
CCNC(=O)C[C@@H]1N=C(c2ccc(Cl)cc2)c2cc(OC)ccc2-n2c(C)nnc21,inactive,inactive,inactive
Cc1cc(C)c(CNc2cc(C3CCCNC3)nc(C)n2)cn1 (stereo unspecified),inactive,inactive,inactive
Cc1cc(Nc2ccccc2Cl)n2nc(C)nc2n1,inactive,inactive,inactive
COc1ccc2c(c1)NP(=S)(Oc1ccccc1)N2 (stereo unspecified),inactive,inactive,inactive
CC(C)c1noc(C2CCCN2Cc2cccnc2N)n1 (stereo unspecified),inactive,inactive,inactive
CS(=O)(=O)N1CCC(NCC(c2ccccc2)N2CCCCCC2)CC1 (stereo unspecified),inactive,inactive,inactive
Cc1cc(S(=O)(=O)[C@H]2CS(=O)(=O)C[C@@H]2NCC2CCCO2)ccc1F (stereo partly specified),inactive,inactive,-
Nc1cc(O)nc(SCC(=O)N2CCc3ccccc32)n1,inactive,inactive,inactive

From ROBIN, a set of small-molecule microarray screens (doi:10.1002/anie.202211358).